Article PMC3486646

Chains of the proteins cited; added tags and fusions are not shown. Lines headed by an entry give the natural chain unless they say otherwise; changes in a name come on top. Residues count along the entry.
UniProt O95793: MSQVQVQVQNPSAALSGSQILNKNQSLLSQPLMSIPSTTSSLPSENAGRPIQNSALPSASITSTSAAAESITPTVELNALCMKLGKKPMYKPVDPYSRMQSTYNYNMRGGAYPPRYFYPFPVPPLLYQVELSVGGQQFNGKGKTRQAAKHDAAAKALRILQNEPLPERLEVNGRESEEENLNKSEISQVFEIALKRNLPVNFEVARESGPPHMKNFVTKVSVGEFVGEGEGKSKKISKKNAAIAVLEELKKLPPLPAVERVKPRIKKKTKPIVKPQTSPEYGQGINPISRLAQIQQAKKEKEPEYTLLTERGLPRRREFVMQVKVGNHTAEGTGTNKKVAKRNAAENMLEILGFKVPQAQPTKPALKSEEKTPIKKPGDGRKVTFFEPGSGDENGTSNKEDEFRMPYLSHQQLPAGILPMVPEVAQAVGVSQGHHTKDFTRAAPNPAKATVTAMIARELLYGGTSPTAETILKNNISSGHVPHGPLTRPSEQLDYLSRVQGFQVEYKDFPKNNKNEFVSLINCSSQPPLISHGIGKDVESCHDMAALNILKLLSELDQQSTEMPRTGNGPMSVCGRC
Staufen1-TAP: residues 82-577 of O95793
UniProt Q13200: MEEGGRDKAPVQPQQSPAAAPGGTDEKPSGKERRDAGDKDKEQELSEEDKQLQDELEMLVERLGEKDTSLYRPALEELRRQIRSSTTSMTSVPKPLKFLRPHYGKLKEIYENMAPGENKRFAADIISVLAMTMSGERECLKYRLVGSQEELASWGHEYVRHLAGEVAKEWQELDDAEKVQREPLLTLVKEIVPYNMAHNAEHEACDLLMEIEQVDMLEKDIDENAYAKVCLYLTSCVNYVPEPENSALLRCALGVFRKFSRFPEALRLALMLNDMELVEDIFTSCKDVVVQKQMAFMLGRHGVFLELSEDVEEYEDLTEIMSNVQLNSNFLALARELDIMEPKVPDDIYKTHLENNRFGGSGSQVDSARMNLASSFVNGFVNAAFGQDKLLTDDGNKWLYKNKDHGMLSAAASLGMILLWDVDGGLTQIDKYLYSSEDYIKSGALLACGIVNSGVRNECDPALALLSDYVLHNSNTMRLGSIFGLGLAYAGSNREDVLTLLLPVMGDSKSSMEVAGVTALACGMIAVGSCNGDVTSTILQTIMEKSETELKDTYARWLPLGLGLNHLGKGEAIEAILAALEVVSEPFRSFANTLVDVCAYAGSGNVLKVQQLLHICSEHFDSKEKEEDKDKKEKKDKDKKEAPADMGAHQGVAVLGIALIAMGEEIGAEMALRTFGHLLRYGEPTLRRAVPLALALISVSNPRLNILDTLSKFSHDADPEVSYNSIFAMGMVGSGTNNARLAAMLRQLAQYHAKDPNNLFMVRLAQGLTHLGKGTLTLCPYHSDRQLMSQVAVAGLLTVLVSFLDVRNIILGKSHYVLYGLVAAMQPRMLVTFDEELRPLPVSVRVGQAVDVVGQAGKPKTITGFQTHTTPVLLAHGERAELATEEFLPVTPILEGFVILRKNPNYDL
UniProt Q92841: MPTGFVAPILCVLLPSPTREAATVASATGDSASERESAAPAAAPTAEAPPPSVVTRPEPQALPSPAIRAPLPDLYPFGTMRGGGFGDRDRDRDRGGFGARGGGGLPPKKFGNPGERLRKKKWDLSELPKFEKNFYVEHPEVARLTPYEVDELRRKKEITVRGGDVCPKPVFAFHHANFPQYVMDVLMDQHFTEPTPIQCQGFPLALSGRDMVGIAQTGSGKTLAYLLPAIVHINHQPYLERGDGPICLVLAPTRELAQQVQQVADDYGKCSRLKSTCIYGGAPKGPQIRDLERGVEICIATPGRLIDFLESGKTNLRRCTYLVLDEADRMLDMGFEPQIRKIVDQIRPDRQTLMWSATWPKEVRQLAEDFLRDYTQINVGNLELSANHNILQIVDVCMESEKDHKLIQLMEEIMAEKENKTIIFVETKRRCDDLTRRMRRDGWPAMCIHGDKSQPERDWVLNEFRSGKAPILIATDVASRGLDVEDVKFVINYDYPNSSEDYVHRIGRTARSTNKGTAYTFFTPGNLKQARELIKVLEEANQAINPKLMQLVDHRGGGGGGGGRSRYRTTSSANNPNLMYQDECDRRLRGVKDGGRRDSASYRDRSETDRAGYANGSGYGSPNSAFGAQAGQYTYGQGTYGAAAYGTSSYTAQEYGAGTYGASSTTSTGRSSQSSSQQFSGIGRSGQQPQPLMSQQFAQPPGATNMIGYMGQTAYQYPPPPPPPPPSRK
UniProt O95831: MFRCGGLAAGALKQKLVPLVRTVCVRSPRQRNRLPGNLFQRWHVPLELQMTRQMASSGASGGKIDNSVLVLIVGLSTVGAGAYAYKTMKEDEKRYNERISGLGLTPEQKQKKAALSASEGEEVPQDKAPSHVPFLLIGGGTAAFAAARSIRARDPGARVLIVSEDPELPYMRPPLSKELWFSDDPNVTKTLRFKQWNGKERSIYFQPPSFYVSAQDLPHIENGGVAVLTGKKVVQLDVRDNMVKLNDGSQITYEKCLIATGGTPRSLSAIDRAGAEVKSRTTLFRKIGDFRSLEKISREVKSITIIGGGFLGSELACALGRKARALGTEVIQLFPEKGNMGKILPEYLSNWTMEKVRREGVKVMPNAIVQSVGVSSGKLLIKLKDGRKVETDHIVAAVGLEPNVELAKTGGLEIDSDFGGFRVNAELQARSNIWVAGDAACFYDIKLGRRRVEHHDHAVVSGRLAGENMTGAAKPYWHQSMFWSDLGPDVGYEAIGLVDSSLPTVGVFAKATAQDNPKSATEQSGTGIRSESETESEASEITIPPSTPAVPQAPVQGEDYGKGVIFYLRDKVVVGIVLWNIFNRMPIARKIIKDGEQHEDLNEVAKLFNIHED
UniProt Q7L523: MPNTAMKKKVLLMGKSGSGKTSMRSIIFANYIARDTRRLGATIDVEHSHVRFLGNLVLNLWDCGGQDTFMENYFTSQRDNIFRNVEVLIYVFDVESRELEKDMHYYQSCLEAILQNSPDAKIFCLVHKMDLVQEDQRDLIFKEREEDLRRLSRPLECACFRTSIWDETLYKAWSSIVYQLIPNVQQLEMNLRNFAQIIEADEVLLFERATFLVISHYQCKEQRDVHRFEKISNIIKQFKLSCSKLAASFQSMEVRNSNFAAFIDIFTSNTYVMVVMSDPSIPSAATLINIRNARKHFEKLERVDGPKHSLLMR
UniProt P26641: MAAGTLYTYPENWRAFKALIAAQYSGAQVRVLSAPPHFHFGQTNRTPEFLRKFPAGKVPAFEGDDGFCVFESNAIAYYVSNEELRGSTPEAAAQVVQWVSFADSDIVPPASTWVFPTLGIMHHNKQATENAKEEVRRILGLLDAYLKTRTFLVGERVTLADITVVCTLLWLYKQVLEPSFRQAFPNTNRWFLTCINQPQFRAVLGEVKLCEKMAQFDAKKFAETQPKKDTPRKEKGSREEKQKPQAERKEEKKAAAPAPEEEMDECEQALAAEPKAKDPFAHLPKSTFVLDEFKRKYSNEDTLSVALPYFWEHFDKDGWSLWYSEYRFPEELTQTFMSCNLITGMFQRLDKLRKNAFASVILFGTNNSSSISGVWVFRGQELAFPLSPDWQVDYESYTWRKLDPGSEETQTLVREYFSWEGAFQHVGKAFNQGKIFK
UniProt P60842: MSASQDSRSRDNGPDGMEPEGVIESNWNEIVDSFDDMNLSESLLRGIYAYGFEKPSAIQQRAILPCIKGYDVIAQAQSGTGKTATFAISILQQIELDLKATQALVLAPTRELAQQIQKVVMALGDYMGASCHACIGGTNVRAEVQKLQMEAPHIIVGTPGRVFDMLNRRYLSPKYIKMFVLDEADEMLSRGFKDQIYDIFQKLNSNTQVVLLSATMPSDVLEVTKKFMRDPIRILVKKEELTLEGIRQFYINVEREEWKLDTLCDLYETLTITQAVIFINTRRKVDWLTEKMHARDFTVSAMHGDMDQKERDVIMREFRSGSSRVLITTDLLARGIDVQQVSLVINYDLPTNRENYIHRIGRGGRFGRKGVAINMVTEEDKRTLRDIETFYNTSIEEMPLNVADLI
UniProt P84085: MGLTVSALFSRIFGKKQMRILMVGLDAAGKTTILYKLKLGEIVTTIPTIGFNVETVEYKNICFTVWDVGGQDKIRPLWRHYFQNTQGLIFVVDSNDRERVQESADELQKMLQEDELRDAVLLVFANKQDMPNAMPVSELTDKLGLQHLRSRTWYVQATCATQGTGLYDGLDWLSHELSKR
UniProt P61923: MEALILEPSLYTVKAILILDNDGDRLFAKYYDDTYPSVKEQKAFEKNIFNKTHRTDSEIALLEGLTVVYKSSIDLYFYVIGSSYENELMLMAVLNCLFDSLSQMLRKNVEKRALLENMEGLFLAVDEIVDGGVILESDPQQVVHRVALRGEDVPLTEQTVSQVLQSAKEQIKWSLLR
UniProt P38919: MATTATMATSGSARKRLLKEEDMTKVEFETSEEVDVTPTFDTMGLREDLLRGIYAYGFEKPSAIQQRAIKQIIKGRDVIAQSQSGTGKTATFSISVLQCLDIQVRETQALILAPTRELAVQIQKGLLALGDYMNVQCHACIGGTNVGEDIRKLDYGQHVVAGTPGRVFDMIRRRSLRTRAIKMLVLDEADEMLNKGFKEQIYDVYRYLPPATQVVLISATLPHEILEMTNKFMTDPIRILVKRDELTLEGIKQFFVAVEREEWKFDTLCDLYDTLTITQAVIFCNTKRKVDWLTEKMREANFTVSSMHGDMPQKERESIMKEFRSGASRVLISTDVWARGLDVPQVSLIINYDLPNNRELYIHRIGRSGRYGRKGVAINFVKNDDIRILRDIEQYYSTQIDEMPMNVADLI
UniProt P68366: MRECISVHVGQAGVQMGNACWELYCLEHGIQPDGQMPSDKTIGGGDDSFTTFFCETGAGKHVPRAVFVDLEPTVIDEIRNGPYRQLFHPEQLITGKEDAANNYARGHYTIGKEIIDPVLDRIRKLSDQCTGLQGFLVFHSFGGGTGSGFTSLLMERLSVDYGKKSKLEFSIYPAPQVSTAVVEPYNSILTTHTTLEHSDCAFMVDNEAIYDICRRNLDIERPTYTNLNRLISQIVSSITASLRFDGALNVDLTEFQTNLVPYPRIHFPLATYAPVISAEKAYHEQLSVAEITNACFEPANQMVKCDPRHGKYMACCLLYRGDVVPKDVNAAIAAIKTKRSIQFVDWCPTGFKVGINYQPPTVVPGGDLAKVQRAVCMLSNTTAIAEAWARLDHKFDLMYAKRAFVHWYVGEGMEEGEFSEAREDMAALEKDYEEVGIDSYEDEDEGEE
UniProt P11940: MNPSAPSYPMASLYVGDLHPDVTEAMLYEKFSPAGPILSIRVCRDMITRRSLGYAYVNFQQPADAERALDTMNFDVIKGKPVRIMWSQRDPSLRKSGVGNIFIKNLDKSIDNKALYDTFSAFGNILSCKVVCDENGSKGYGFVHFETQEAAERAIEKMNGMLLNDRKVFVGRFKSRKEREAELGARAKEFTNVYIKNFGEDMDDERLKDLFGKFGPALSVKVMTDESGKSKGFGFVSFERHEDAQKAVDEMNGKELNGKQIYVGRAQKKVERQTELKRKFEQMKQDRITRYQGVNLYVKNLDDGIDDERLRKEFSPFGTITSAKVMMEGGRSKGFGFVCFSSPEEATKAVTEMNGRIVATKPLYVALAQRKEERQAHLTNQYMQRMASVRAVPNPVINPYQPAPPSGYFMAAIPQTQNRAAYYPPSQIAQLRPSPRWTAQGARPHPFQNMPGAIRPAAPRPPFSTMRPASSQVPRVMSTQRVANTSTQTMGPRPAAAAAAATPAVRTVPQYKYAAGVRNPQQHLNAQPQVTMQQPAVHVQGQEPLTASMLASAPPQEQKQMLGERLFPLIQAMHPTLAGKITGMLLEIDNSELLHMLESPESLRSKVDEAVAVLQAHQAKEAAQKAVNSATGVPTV
UniProt P46459: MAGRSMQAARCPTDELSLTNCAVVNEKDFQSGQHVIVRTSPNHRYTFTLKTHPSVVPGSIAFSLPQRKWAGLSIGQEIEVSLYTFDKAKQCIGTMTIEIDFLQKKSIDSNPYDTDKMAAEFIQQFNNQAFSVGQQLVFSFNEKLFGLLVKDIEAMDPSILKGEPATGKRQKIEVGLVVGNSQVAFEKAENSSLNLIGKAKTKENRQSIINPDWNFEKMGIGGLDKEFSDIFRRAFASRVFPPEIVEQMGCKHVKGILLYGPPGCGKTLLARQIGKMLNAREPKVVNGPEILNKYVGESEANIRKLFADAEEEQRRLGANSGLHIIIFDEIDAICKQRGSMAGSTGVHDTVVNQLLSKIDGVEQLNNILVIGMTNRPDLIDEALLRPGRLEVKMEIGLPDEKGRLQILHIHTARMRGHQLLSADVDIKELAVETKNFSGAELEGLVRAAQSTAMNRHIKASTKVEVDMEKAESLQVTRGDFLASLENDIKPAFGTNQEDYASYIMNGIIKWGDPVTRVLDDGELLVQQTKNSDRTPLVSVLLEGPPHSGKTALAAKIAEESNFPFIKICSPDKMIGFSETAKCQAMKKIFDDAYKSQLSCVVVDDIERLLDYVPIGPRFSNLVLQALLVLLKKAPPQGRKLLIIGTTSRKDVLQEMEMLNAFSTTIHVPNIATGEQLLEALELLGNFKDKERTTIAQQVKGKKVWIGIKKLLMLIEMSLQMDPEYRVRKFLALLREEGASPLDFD

biological target: Staufen1-TAP (UniProt O95793); test: affinity purification with mass spectrometry; tandem affinity purification of Staufen1-TAP from lysates of stable 293T cells, mock or pNL4-3 transfected; eluates on SDS-PAGE, 23 gel slices, in gel trypsin digestion, LC-MS/MS; FDR less than 1%

Molecule | binding
26S proteasome non-ATPase regulatory subunit 2 (from UniProt Q13200 1-908) | binds
ADP-ribosylation factor 6 (from UniProt P62330 1-175) | binds
ATP-citrate synthase (from UniProt P53396 1-1101) | binds
Eukaryotic translation initiation factor 3 subunit E (from UniProt P60228 1-445) | binds
HIV-1 Rev-binding protein 2 (from UniProt Q13601 1-381) | binds
Heat shock 70 kDa protein 1L (from UniProt P34931 1-641) | binds
Heterogeneous nuclear ribonucleoprotein A/B (from UniProt Q99729 1-332) | binds
Heterogeneous nuclear ribonucleoprotein Q (from UniProt O60506 1-623) | binds
IQ motif containing GTPase activating protein 1 (from UniProt P46940 1-1657) | binds
Insulin-like growth factor II mRNA-binding protein-3 (from UniProt O00425 1-579) | binds
Long-chain-fatty-acid–CoA ligase 3 (from UniProt O95573 1-720) | binds
Nef (from UniProt P05855 1-205) | binds
Probable ATP-dependent RNA helicase (DDX17) (from UniProt Q92841 1-729) | binds
Programmed cell death 8 (from UniProt O95831) | binds
Protein transport protein Sec61 subunit alpha isoform 1 (from UniProt P61619 1-476) | binds
Ras-related GTP-binding protein A (from UniProt Q7L523 1-313) | binds
Ras-related protein Rab-8A (from UniProt P61006 1-207) | binds
Ras-related protein Rab-10 (from UniProt P61026 1-200) | binds
Splicing factor, arginine/serine-rich 13A (from UniProt O75494 1-262) | binds
V-type proton ATPase subunit d 1 (from UniProt P61421 1-351) | binds
Xpo2 (from UniProt P55060 1-971) | binds
YB-1 (from UniProt P67809 1-324) | binds
adaptor protein AP-3S1 (sigma subunit) (from UniProt Q92572 1-193) | binds
chromosomal regional maintenance protein 1 (from UniProt O14980 1-1071) | binds
eF1 γ (from UniProt P26641 1-437) | binds
eF1 δ (from UniProt P29692 1-281) | binds
eIF4A1 (from UniProt P60842 1-406) | binds
insulin-like growth factor II mRNA-binding protein 2 (from UniProt Q9Y6M1 1-599) | binds

Results, then the molecule that gave them:

binding | Molecule
binds | 26S protease regulatory subunit S10B (from UniProt P62333 1-389)
binds | ADP-ribosylation factor 1 (from UniProt P84077 1-181)
binds | ADP-ribosylation factor 4 (from UniProt P18085 1-180)
binds | ADP-ribosylation factor 5 (from UniProt P84085 1-180)
binds | AP-2 complex subunit mu (from UniProt Q96CW1 1-435)
binds | CDC5L (from UniProt Q99459 1-802)
binds | Coatomer subunit zeta-1 (from UniProt P61923 1-177)
binds | Copine-3 (from UniProt O75131 1-537)
binds | E3 ubiquitin-protein ligase (BRE1A) (from UniProt Q5VTR2 1-975)
binds | Eukaryotic initiation factor 4A-III (from UniProt P38919 1-411)
binds | Hsc70 (from UniProt P11142 1-646)
binds | Hsp60 (from UniProt P10809 27-573)
binds | Ras-related protein Rab-5C (from UniProt P51148 1-216)
binds | SF3B2 (from UniProt Q13435 1-895)
binds | Spliceosome RNA helicase (BAT1) (from UniProt Q13838 1-428)
binds | Tubulin alpha-4A chain (from UniProt P68366 1-448)
binds | Zinc finger RNA-binding protein (from UniProt Q96KR1 1-1074)
binds | coatomer subunit alpha (from UniProt P53621 1-1224)
binds | endogenous Staufen1 (as named among the mass spectrometry hits) (from UniProt O95793 1-577)
binds | glyceraldehyde-3-phosphate dehydrogenase (from UniProt P04406 1-335)
binds | poly-A binding protein (from UniProt P11940 1-636)
binds | vesicle-fusing ATPase (from UniProt P46459 1-744)
binds | vimentin (from UniProt P08670 1-466)

biological target: Staufen1-TAP (UniProt O95793); test: as above; remark: another data set of the same source

binding | Molecule
binds | Alpha-internexin (protein, UniProt Q16352 1-499) MSFGSEHYLCSSSSYRKVFGDGSRLSARLSGAGGAGGFRSQSLSRSNVASSAACSSASSLGLGLAYRRPPASDGLDLSQAAARTNEYKIIRTNEKEQLQGLNDRFAVFIEKVHQLETQNRALEAELAALRQRHAEPSRVGELFQRELRDLRAQLEEASSARSQALLERDGLAEEVQRLRARCEEESRGREGAERALKAQQRDVDGATLARLDLEKKVESLLDELAFVRQVHDEEVAELLATLQASSQAAAEVDVTVAKPDLTSALREIRAQYESLAAKNLQSAEEWYKSKFANLNEQAARSTEAIRASREEIHEYRRQLQARTIEIEGLRGANESLERQILELEERHSAEVAGYQDSIGQLENDLRNTKSEMARHLREYQDLLNVKMALDIEIAAYRKLLEGEETRFSTSGLSISGLNPLPNPSYLLPPRILSATTSKVSSTGLSLKKEEEEEEASKVASKKTSQIGESFEEILEETVISTKKTEKSNIEETTISSQKI
binds | 7-dehydrocholesterol reductase (protein, UniProt Q9UBM7 1-475) MAAKSQPNIPKAKSLDGVTNDRTASQGQWGRAWEVDWFSLASVIFLLLFAPFIVYYFIMACDQYSCALTGPVVDIVTGHARLSDIWAKTPPITRKAAQLYTLWVTFQVLLYTSLPDFCHKFLPGYVGGIQEGAVTPAGVVNKYQINGLQAWLLTHLLWFANAHLLSWFSPTIIFDNWIPLLWCANILGYAVSTFAMVKGYFFPTSARDCKFTGNFFYNYMMGIEFNPRIGKWFDFKLFFNGRPGIVAWTLINLSFAAKQRELHSHVTNAMVLVNVLQAIYVIDFFWNETWYLKTIDICHDHFGWYLGWGDCVWLPYLYTLQGLYLVYHPVQLSTPHAVGVLLLGLVGYYIFRVANHQKDLFRRTDGRCLIWGRKPKVIECSYTSADGQRHHSKLLVSGFWGVARHFNYVGDLMGSLAYCLACGGGHLLPYFYIIYMAILLTHRCLRDEHRCASKYGRDWERYTAAVPYRLLPGIF
binds | Matrin 3 (protein, UniProt P43243 1-847) MSKSFQQSSLSRDSQGHGRDLSAAGIGLLAAATQSLSMPASLGRMNQGTARLASLMNLGMSSSLNQQGAHSALSSASTSSHNLQSIFNIGSRGPLPLSSQHRGDADQASNILASFGLSARDLDELSRYPEDKITPENLPQILLQLKRRRTEEGPTLSYGRDGRSATREPPYRVPRDDWEEKRHFRRDSFDDRGPSLNPVLDYDHGSRSQESGYYDRMDYEDDRLRDGERCRDDSFFGETSHNYHKFDSEYERMGRGPGPLQERSLFEKKRGAPPSSNIEDFHGLLPKGYPHLCSICDLPVHSNKEWSQHINGASHSRRCQLLLEIYPEWNPDNDTGHTMGDPFMLQQSTNPAPGILGPPPPSFHLGGPAVGPRGNLGAGNGNLQGPRHMQKGRVETSRVVHIMDFQRGKNLRYQLLQLVEPFGVISNHLILNKINEAFIEMATTEDAQAAVDYYTTTPALVFGKPVRVHLSQKYKRIKKPEGKPDQKFDQKQELGRVIHLSNLPHSGYSDSAVLKLAEPYGKIKNYILMRMKSQAFIEMETREDAMAMVDHCLKKALWFQGRCVKVDLSEKYKKLVLRIPNRGIDLLKKDKSRKRSYSPDGKESPSDKKSKTDGSQKTESSTEGKEQEEKSGEDGEKDTKDDQTEQEPNMLLESEDELLVDEEEAAALLESGSSVGDETDLANLGDVASDGKKEPSDKAVKKDGSASAAAKKKLKKVDKIEELDQENEAALENGIKNEENTEPGAESSENADDPNKDTSENADGQSDENKDDYTIPDEYRIGPYQPNVPVGIDYVIPKTGFYCKLCSLFYTNEEVAKNTHCSSLPHYQKLKKFLNKLAEERRQKKET
binds | Ribophorin-1 (protein, UniProt P04843 24-607) ASSEAPPLINEDVKRTVDLSSHLAKVTAEVVLAHLGGGSTSRATSFLLALEPELEARLAHLGVQVKGEDEEENNLEVRETKIKGKSGRFFTVKLPVALDPGAKISVIVETVYTHVLHPYPTQITQSEKQFVVFEGNHYFYSPYPTKTQTMRVKLASRNVESYTKLGNPTRSEDLLDYGPFRDVPAYSQDTFKVHYENNSPFLTITSMTRVIEVSHWGNIAVEENVDLKHTGAVLKGPFSRYDYQRQPDSGISSIRSFKTILPAAAQDVYYRDEIGNVSTSHLLILDDSVEMEIRPRFPLFGGWKTHYIVGYNLPSYEYLYNLGDQYALKMRFVDHVFDEQVIDSLTVKIILPEGAKNIEIDSPYEISRAPDELHYTYLDTFGRPVIVAYKKNLVEQHIQDIVVHYTFNKVLMLQEPLLVVAAFYILFFTVIIYVRLDFSITKDPAAEARMKVACITEQVLTLVNKRIGLYRHFDETVNRYKQSRDISTLNSGKKSLETEHKALTSEIALLQSRLKTEGSDLCDRVSEMQKLDAQVKELVLKSAVEAERLVAGKLKKDTYIENEKLISGKRQELVTKIDHILDAL

These are yes or no findings as the source states them, for the method shown. In cells and extracts the contact can be indirect. These calls come from enrichment with a bait or labelling near it, and not all partners need be listed.
